# The other results are listed elsewhere or left out.
# The chains behind the UniProt entries cited, without tags or fusion partners. Where a name states a change or a piece, a line headed by the entry shows the natural chain unless it says otherwise.
# UniProt Q9UBD5: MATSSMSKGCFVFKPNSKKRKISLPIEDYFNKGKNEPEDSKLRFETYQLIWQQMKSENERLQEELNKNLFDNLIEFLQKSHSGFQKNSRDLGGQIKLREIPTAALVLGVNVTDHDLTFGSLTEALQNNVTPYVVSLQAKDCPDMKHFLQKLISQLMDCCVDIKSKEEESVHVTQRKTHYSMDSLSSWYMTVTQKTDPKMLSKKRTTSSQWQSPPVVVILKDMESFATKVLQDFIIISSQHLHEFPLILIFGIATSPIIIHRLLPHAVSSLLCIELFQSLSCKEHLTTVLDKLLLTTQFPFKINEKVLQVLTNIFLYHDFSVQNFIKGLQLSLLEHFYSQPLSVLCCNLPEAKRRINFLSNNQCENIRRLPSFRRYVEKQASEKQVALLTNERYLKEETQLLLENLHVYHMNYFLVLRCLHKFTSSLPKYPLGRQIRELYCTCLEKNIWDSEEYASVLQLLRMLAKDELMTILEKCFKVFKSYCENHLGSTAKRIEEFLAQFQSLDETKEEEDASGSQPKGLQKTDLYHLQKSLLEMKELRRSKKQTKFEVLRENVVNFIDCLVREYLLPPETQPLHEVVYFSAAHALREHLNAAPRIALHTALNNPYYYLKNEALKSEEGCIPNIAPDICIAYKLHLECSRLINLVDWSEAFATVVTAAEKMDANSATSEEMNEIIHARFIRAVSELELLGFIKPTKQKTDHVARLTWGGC
# UniProt Q15102: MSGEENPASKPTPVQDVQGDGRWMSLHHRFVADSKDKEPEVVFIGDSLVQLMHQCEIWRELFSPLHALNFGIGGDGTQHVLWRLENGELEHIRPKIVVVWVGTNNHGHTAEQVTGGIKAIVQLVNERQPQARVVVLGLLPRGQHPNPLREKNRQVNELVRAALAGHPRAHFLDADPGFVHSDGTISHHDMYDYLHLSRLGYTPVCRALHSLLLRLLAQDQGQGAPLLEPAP
# UniProt Q9BZF1: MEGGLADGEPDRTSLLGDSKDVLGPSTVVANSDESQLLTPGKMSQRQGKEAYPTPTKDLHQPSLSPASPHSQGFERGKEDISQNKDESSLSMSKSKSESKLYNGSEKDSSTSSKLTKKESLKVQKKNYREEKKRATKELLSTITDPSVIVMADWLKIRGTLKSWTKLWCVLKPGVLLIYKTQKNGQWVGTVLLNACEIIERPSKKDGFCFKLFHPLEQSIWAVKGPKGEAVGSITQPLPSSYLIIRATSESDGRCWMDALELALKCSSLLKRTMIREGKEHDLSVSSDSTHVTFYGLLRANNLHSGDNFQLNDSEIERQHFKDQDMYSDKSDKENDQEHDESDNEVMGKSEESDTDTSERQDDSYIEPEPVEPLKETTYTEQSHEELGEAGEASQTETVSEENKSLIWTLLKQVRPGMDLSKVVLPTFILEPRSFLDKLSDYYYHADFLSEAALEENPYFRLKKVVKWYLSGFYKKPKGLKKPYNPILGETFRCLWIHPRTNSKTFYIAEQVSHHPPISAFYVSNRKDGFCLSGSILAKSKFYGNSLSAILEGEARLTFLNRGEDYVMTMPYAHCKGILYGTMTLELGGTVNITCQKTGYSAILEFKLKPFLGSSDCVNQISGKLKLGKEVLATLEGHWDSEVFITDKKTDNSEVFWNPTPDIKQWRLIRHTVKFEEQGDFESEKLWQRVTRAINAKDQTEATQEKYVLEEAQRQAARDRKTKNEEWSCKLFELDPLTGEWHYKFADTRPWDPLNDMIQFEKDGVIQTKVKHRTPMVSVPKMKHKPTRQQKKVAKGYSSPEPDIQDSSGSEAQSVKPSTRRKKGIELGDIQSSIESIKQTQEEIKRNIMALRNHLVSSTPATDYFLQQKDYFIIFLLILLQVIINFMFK
# UniProt Q13415: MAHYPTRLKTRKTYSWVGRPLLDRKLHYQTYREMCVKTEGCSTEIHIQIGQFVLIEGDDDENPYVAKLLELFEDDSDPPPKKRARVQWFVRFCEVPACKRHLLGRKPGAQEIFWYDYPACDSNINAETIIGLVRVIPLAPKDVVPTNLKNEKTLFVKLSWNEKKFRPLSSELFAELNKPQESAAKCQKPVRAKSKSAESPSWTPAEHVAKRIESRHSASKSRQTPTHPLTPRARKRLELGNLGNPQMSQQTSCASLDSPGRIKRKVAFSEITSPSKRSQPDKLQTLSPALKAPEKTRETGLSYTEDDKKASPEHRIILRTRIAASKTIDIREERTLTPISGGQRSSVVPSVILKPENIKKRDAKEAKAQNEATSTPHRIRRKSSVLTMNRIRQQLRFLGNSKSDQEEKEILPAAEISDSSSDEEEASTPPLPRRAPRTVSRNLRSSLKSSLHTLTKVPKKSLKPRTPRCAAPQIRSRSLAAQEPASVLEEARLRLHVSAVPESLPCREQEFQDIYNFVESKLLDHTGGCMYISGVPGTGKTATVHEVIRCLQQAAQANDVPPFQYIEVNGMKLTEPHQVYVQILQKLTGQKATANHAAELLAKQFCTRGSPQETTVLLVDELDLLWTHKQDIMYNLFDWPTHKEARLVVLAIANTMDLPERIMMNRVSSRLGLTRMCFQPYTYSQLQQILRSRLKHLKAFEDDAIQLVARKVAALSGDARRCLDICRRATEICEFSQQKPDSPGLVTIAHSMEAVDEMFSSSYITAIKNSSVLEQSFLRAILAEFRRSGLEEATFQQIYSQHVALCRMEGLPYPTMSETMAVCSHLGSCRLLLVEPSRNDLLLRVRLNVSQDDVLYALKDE
# UniProt O15294: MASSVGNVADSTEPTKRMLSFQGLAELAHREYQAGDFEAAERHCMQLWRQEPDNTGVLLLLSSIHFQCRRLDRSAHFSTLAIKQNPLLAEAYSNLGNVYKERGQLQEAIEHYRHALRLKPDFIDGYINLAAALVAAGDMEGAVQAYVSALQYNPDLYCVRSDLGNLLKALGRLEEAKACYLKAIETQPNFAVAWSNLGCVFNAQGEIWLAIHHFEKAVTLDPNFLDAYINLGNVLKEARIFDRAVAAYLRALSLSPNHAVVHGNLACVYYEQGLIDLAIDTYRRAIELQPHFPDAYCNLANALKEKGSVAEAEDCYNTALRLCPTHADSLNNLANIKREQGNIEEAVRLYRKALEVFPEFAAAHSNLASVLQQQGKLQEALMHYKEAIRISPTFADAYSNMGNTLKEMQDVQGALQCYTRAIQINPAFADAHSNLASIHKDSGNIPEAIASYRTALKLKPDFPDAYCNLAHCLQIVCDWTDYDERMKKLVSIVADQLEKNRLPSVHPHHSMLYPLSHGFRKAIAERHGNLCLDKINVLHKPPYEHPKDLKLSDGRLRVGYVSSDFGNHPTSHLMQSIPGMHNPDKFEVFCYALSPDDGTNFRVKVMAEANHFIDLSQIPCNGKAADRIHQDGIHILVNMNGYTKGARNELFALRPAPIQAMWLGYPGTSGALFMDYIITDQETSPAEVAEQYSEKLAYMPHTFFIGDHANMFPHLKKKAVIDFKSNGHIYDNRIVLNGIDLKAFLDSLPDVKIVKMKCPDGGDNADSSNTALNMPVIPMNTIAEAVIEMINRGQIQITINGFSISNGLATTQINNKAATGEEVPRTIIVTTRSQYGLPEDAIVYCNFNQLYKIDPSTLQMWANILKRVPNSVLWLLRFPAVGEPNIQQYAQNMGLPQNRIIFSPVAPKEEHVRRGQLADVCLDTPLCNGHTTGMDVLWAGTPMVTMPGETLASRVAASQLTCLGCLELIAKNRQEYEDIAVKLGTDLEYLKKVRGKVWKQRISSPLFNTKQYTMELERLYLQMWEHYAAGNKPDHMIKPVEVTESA
# UniProt Q9Y2J8, whole entry, looked up: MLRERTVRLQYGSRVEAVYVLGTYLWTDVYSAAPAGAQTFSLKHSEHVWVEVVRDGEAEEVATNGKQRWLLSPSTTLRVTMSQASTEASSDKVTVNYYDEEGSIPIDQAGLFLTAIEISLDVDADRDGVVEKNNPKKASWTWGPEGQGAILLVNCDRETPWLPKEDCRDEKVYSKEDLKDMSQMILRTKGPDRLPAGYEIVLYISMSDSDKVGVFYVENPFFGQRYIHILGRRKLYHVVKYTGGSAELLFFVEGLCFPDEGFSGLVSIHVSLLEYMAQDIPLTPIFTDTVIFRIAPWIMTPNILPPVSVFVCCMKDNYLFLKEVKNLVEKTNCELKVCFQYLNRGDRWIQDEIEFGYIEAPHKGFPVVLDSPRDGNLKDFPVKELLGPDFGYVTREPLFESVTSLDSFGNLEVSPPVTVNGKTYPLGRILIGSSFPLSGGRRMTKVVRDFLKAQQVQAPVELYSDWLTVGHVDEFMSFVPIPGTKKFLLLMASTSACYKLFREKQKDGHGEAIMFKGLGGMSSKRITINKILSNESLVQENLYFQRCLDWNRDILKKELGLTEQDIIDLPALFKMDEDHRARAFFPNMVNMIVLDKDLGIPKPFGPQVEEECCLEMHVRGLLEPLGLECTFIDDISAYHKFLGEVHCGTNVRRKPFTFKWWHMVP
# UniProt Q13438: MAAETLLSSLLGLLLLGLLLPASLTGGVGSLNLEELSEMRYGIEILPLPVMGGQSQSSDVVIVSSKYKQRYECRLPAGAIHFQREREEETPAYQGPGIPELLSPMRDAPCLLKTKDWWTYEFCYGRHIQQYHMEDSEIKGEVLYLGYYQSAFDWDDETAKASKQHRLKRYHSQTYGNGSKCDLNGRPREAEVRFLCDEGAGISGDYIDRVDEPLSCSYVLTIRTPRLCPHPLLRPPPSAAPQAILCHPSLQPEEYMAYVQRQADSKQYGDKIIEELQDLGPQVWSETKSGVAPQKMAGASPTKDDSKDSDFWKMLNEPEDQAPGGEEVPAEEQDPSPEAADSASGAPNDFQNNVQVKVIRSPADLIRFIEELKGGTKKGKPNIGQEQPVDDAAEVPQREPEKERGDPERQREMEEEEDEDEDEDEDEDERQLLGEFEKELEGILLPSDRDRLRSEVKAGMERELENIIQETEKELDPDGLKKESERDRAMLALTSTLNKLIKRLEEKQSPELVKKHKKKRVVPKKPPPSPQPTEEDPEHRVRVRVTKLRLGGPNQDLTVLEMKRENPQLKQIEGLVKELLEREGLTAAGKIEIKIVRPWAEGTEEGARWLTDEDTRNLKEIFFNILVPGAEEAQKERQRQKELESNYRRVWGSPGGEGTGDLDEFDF
# UniProt P07237: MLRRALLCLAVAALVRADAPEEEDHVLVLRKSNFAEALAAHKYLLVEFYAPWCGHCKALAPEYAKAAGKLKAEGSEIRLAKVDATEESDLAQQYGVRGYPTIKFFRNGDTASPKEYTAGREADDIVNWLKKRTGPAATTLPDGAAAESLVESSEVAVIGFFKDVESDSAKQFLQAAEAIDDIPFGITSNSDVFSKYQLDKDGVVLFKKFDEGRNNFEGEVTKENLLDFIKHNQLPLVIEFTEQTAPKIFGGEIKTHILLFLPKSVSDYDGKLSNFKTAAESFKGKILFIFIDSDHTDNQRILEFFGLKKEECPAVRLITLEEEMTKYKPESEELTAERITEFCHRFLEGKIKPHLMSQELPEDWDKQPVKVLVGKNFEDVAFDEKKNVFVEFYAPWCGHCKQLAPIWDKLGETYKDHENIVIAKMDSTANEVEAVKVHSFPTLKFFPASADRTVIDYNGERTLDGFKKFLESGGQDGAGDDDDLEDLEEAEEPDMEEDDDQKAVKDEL
# UniProt Q86VP3, whole entry: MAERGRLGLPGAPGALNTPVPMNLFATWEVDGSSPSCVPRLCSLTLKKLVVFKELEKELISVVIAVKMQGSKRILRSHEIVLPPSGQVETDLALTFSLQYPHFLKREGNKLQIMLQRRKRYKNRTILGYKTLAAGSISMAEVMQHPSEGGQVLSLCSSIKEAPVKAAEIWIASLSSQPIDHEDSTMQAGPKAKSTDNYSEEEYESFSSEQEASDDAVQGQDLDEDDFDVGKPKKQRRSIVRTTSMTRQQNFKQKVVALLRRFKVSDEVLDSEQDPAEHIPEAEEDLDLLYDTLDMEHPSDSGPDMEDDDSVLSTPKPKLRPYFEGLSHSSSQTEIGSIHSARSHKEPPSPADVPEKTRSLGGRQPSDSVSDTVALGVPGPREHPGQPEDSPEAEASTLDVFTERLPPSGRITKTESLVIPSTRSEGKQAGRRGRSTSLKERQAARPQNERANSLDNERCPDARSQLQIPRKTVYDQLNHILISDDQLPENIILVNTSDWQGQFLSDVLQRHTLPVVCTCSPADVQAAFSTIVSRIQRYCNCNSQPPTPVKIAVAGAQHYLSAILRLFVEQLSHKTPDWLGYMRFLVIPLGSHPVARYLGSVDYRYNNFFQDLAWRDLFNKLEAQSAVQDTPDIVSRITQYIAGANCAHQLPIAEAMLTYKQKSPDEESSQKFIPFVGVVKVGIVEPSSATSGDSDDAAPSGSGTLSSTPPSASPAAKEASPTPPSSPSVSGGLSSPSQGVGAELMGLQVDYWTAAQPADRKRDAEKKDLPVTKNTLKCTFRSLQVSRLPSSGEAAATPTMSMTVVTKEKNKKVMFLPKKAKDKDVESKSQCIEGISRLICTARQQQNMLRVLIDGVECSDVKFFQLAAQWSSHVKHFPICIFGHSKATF
# UniProt Q9BPZ3: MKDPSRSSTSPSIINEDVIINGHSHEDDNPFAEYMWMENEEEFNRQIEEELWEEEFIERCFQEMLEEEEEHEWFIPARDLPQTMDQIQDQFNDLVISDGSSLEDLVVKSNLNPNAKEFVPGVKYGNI
# Compound: CC1Cc2ccccc2N1C(=O)C1CCCN(C1)C(=O)CCl (mixture of isomers) [TRIM25 ligand 11 (diastereomer mixture)]
# Experiment: probe-labelled cysteine peptide fold change vs DMSO (competition) (log2 fold change); higher = less target engagement (more negative = stronger competition)
# Details: THP-1, incubation time: 4 h
# 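Further: competitive chemoproteomic profiling in live THP-1 cells with an iodoacetamide desthiobiotin (IA-DTB) probe, comparing probe-labelled peptide intensities in compound-treated cells against DMSO-treated controls.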
Target,probe-labelled cysteine peptide fold change (10 µM),probe-labelled cysteine peptide fold change (50 µM)
ORC3_Q9UBD5_141_DCPDMK (UniProt Q9UBD5),0.0222,0.0344
OSBPL1A_Q9BXW6_746_PCGLFGK (UniProt Q9BXW6),0.109,0.494
PARP10_Q53GL7_983_YDSAVDCICQPSIFVIFHDTQALPTHLITCEHVPR (UniProt Q53GL7),-0.165,-0.502
PAK2_Q13177_352_ECLQALEFLHANQVIHR (UniProt Q13177),0.0134,0.223
PARP10_Q53GL7_981+983+1004_YDSAVDCICQPSIFVIFHDTQALPTHLITCEHVPR (UniProt Q53GL7),-0.174,0.0281
OSBP_P22059_803_QDWSSCPDIF (UniProt P22059),-0.00389,-0.206
PAFAH1B3_Q15102_205_LGYTPVCR (UniProt Q15102),0.00158,-0.00455
OSGEPL1_Q9H4B0_295_GQILSSAADIAATVQHTMACHLVK (UniProt Q9H4B0),-0.0724,-0.383
OSBPL8_Q9BZF1_575_LTFLNRGEDYVMTMPYAHCK (UniProt Q9BZF1),-0.349,0.141
PA2G4_Q9UQ80_296_MGVVECAK (UniProt Q9UQ80),-0.114,-0.119
OSBPL1A_Q9BXW6_769_LCALYGK (UniProt Q9BXW6),-0.000747,-0.00343
OSGEP_Q9NPF4_110_PLVGVNHCIGHIEMGR (UniProt Q9NPF4),0.103,0.0404
PABPC1_P11940_128_ALYDTFSAFGNILSCK (UniProt P11940),-0.0161,-0.0248
PAG1_Q9NWQ8_355_SPSSCNDLYATVK (UniProt Q9NWQ8),-0.0441,-0.297
PALD1_Q9ULE6_312_DAHGPPPALVFSCQMGVGR (UniProt Q9ULE6),0.215,0.15
ORC1_Q13415_806_SGLEEATFQQIYSQHVALCR (UniProt Q13415),0.0742,0.0533
OGT_O15294_44_HCMQLWR (UniProt O15294),0.0666,0.114
PADI2_Q9Y2J8_612+613_PFGPQVEEECCLEMHVR (UniProt Q9Y2J8),-0.0826,-0.202
PAFAH2_Q99487_147_SAATTYFCK (UniProt Q99487),-0.0137,-0.0335

# Retrieved one by one from the list above (three):
Target,probe-labelled cysteine peptide fold change (10 µM),probe-labelled cysteine peptide fold change (50 µM)
PADI2_Q9Y2J8_612+613_PFGPQVEEECCLEMHVR (UniProt Q9Y2J8),-0.0826,-0.202
OGT_O15294_44_HCMQLWR (UniProt O15294),0.0666,0.114
OSBPL8_Q9BZF1_575_LTFLNRGEDYVMTMPYAHCK (UniProt Q9BZF1),-0.349,0.141

# Carrying on.

Target,probe-labelled cysteine peptide fold change (10 µM),probe-labelled cysteine peptide fold change (50 µM)
OS9_Q13438_181_CDLNGRPR (UniProt Q13438),0.0235,0.139
P3H1_Q32P28_568_LDTPLYFSYSHLVCR (UniProt Q32P28),-0.0496,0.112
PAFAH1B2_P68402_206_ICKPLHELIMQLLEETPEEK (UniProt P68402),-0.486,-0.692
ORC1_Q13415_529_LLDHTGGCMYISGVPGTGK (UniProt Q13415),0.0299,0.0345
P4HB_P07237_312_ILEFFGLKKEECPAVR (UniProt P07237),-0.567,-0.501
OTUB1_Q96FW1_23_QEPLGSDSEGVNCLAYDEAIMAQQDR (UniProt Q96FW1),-0.0765,-0.462
OSBPL1A_Q9BXW6_340_EDWLEAIEEHSAYSTHYCSQDQLTDEEEEDTVSAADLKK (UniProt Q9BXW6),0.199,-0.153
PACS2_Q86VP3_880_HFPICIFGHSK (UniProt Q86VP3),-0.203,-0.036
OTULINL_Q9NUU6_177_LLFSQGCNWIQQYSFGPEK (UniProt Q9NUU6),0.0119,-0.0217
PANK4_Q9NVE7_699_LLLVQTGSSSPCLDLSR (UniProt Q9NVE7),0.178,0.01
PARN_O95453_169_CPVTIPEDQK (UniProt O95453),0.0951,-0.119
ORC3_Q9UBD5_158_LISQLMDCCVDIK (UniProt Q9UBD5),-0.0854,-0.134
PAIP2_Q9BPZ3_60_CFQEMLEEEEEHEWFIPAR (UniProt Q9BPZ3),-0.237,-0.327
PAPSS2_O95340_155_IHESAGLPFFEIFVDAPLNICESR (UniProt O95340),-0.0844,-0.325
OR4D11_Q8NGI4_72_LHTPMYFLLRNLAILDICFSSTTAPKVLLDLLSK (UniProt Q8NGI4),-0.157,-0.144
PAFAH1B3_Q15102_55_DKEPEVVFIGDSLVQLMHQCEIWR (UniProt Q15102),0.193,0.141
P4HB_P07237_312_EECPAVR (UniProt P07237),-0.0591,0.0132
P4HTM_Q9NXG6_156_TLSLKPLLFEIPGFLTDEECR (UniProt Q9NXG6),-0.153,0.0582

# — the supplement of paper PMC12067093, “Discovery and optimisation of a covalent ligand for TRIM25 and its application to targeted protein ubiquitination” (Chemical Science, 2025)
